From article PMC6662305, “The basic helix‐loop‐helix transcription factor, OsPIL15, regulates grain size via directly targeting a purine permease gene OsPUP7 in rice”
Results are given in words; binding and its absence hold for the method and conditions named. Some entries that bind do so weakly or less than the wild type.

Molecular target: T1, OsPIL15 (rice (Oryza sativa L.)) (UniProt Q0JNI9)
T1 sequence: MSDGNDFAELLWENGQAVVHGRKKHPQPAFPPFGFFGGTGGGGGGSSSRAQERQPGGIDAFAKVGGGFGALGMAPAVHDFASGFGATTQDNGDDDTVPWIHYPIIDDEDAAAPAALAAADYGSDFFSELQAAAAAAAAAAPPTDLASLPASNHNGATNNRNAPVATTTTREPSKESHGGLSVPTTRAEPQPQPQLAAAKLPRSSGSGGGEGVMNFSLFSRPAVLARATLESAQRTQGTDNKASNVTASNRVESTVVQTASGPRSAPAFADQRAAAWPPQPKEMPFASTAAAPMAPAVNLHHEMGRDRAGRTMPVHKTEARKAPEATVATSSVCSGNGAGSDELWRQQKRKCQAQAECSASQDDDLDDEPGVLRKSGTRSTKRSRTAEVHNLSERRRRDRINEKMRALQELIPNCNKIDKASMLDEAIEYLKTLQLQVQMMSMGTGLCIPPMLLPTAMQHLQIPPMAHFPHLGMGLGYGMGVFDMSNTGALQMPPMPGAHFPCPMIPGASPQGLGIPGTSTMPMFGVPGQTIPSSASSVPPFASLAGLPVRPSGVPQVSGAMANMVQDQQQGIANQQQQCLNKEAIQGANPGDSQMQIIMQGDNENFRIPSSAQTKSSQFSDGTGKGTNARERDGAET
Assay: two-hybrid; split-ubiquitin yeast two-hybrid (DUALhunter kit); OsPIL15 in pDHB1 (bait), OsPGL1 or OsPGL2 in pPR3-N (prey); yeast NMY51; growth on SD-LTH and SD-LTHA, serial dilutions spotted on plates with 5 mM 3-AT

B1: OsPGL1 (protein, UniProt Q0DUR2 1-92)
chain: MSSRRSRSRQSGSSRITDEQISDLVSKLQDLLPEARLRSNDRVPSSRVLQETCNYIRSLHQEVDDLSERLSELLATSDMSSAQAAIIRSLLM
  binding: binds weakly

B2: OsPGL2 (protein, UniProt Q6YUX0 1-88)
chain: MSSRRSSRGSISEEEINELISKLQSLLPNSRRRGSSQASTTKLLKETCNYIKSLHREVDDLSDRLSDLMATMDHNSPGAEIIRSILRS
  binding: no binding
